These results are taken from article PMC10603234.

Chains of the proteins cited; added tags and fusions are not shown. Lines headed by an entry give the natural chain unless they say otherwise; changes in a name come on top.
UniProt P14416: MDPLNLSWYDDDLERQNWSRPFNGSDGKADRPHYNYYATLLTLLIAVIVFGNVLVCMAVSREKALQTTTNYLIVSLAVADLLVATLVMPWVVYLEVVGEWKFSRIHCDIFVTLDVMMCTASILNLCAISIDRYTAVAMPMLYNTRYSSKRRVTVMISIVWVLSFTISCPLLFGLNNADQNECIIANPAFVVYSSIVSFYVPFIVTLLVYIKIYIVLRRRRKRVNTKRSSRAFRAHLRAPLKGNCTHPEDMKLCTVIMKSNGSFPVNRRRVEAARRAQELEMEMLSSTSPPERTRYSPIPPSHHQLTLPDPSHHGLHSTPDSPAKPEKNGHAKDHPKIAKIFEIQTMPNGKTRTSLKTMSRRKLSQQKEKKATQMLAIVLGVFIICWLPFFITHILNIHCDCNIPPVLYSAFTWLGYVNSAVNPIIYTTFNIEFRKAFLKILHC
UniProt P30559: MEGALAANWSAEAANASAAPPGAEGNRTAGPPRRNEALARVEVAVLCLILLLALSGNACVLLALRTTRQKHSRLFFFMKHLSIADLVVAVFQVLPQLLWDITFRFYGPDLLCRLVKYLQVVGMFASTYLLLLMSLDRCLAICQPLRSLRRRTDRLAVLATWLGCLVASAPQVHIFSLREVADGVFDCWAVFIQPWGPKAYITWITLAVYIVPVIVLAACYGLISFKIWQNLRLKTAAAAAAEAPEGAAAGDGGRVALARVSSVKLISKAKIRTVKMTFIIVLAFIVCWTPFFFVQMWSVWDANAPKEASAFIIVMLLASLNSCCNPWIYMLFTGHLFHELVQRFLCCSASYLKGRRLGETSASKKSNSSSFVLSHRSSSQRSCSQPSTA

These are yes or no findings as the source states them, for the method shown. Binding seen in cells or lysates may run through a third protein. Some binding calls cover weakened binding; strength is not graded here.

This test has as its target D2R-Rluc (UniProt P14416). In words: FRET or BRET; BRET2 saturation in HEK293T cells co-transfected with constant D2R-Rluc (1 ug) and increasing OXTR-GFP2 (0.25-9 ug) plasmid, coelenterazine-400a; vehicle or oxytocin (100 nM) + quinpirole (200 nM); also fixed-ratio cells with D2R and OXTR agonists and antagonists. A general note: In BRET a luciferase serves as donor, and the signal depends on an acceptor being close.

With “OXTR-GFP2 (from UniProt P30559 1-389) (receptor)”, the binding entry was “binds”.
